Test results taken from the M2OR odorant receptor database.
Only a part is listed here, and it is no random draw. Calls are pooled over several reports, among them a noisy single-well screen. The list shows a part of the results.

Key:
Details in all cases: stereoisomer not certain
UniProt Q8VGU3 = biological target: T1, UniProt Q8VGU3
T1 sequence (whole entry): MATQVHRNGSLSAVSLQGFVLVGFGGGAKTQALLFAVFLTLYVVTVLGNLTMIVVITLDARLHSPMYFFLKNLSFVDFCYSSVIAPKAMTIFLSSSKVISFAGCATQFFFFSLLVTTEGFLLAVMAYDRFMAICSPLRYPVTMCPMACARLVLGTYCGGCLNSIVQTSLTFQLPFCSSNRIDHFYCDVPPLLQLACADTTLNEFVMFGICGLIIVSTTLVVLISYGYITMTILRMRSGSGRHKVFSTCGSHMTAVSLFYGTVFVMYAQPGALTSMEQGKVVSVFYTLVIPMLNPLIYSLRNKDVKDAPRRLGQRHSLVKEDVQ
Method in brief: (§1)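 Each receptor–molecule pair is labelled responsive or non-responsive (inactive) according to whether the original authors judged the measured signal statistically different from baseline. The data were taken from the main text and supplementary material of published papers and checked for typos and inconsistencies. Assay methods differed by source, with transient luciferase assays in mammalian cell lines being common.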

UniProt Q8VGV7 = biological target: T2, UniProt Q8VGV7
T2 sequence (whole entry): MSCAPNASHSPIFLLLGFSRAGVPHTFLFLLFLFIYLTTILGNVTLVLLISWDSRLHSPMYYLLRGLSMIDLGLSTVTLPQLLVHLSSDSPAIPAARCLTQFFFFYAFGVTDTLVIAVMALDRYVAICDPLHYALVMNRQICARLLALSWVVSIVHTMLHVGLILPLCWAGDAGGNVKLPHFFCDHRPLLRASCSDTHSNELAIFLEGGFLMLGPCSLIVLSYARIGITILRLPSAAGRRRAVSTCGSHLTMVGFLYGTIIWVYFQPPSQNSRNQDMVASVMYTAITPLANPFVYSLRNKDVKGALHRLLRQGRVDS
Method in brief: as §1

UniProt Q8VGX3 = biological target: T3, UniProt Q8VGX3
T3 sequence (whole entry): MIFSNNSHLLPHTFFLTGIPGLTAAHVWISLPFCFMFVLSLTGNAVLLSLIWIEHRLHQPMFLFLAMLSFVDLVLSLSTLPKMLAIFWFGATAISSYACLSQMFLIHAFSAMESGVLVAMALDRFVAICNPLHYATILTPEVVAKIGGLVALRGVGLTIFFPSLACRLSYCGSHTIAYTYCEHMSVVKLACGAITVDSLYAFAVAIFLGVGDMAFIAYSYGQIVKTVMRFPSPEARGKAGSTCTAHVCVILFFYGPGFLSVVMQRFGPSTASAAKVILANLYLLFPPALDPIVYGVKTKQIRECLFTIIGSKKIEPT
Method in brief: as §1

UniProt Q8VGX5 = biological target: T4, UniProt Q8VGX5
T4 sequence (whole entry): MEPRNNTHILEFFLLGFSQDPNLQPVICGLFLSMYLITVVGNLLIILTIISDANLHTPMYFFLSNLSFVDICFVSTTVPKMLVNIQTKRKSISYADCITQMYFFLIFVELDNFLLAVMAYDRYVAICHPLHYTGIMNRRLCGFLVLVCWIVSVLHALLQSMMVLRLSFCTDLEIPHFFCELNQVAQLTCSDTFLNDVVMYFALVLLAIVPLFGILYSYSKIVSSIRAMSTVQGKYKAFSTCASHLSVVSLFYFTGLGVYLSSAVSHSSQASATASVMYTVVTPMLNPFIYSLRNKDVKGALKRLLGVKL
Method in brief: as §1

UniProt Q8VGZ2 = biological target: T5, UniProt Q8VGZ2
T5 sequence (whole entry): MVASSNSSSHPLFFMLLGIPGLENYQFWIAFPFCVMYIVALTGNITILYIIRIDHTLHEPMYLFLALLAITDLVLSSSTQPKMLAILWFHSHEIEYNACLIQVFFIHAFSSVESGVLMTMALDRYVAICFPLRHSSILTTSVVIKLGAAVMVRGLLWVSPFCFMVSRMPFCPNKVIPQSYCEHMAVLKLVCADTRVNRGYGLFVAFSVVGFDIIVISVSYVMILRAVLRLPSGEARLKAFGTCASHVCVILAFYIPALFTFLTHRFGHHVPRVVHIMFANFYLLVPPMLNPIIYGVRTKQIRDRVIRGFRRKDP
Method in brief: as §1

UniProt Q8VGZ7 = biological target: T6, UniProt Q8VGZ7
T6 sequence (whole entry): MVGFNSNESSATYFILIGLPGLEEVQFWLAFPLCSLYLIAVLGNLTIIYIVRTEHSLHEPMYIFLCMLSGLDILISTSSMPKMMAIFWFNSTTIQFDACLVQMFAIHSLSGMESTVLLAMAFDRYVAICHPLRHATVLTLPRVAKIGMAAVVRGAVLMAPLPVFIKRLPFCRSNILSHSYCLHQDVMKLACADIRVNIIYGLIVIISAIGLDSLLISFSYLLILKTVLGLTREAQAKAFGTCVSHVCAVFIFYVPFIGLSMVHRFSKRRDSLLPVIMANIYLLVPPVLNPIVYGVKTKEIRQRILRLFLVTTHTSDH
Method in brief: as §1

UniProt Q8VH16 = biological target: T7, UniProt Q8VH16
T7 sequence (whole entry): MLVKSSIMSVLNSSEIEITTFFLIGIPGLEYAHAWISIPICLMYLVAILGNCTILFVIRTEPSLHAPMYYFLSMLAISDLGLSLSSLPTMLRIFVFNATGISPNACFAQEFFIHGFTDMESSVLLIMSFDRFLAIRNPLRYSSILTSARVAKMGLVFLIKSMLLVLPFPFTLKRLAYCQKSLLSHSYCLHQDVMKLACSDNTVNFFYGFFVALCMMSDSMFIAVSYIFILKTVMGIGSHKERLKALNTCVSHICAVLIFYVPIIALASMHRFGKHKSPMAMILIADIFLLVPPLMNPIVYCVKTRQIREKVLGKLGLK
Method in brief: as §1

UniProt Q8VH20 = biological target: T8, UniProt Q8VH20
T8 sequence (whole entry): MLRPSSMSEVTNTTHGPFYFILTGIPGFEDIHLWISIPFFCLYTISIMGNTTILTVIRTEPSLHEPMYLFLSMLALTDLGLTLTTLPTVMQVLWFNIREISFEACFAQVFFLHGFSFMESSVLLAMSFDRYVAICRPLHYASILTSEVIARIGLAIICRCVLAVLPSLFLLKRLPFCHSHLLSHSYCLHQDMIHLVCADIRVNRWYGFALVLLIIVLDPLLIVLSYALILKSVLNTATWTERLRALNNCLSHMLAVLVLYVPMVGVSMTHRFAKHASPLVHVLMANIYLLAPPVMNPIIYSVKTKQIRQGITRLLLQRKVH
Method in brief: as §1

UniProt Q8VH21 = biological target: T9, UniProt Q8VH21
T9 sequence (whole entry): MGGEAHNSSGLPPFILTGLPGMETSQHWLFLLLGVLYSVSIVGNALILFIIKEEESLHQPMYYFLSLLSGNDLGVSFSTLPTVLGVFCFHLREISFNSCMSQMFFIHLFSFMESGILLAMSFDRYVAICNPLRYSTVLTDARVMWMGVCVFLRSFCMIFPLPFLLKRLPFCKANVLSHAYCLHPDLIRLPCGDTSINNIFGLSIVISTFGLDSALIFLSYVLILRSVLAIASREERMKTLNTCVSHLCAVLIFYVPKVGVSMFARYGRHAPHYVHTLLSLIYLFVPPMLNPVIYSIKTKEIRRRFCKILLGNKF
Method in brief: as §1

UniProt Q920P1 = biological target: T10, UniProt Q920P1
T10 sequence (whole entry): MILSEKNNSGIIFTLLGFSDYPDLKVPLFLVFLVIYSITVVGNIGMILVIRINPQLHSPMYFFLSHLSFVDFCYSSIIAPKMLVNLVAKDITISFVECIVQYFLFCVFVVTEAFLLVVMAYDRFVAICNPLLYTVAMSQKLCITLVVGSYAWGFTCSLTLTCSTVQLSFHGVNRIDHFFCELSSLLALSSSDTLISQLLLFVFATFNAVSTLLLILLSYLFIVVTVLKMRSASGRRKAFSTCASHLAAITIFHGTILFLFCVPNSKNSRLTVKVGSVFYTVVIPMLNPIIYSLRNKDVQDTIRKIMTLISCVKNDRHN
Method in brief: as §1

UniProt Q920P2 = biological target: T11, UniProt Q920P2
T11 sequence (whole entry): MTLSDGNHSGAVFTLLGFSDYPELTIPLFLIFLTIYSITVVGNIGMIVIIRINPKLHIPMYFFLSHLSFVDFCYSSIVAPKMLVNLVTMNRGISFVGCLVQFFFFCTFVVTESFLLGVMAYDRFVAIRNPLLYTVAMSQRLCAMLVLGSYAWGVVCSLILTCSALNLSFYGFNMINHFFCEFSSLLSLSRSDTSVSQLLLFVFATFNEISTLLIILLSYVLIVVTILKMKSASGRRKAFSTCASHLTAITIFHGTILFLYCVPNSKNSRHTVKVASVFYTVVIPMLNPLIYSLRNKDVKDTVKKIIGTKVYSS
Method in brief: as §1

UniProt Q924H8 = biological target: T12, UniProt Q924H8
T12 sequence (whole entry): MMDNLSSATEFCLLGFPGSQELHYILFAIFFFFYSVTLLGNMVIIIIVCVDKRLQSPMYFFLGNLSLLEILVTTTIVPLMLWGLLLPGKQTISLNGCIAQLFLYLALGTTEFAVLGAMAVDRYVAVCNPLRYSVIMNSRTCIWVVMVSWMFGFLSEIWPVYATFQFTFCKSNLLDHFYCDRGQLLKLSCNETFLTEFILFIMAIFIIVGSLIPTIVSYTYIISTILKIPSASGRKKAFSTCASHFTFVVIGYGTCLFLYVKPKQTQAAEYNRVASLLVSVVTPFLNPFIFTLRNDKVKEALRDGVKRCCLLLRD
Method in brief: as §1

Measured: odorant receptor agonist call;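 also: active if original authors judged signal statistically different from baseline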

COc1ccccc1O
inactive: all assays above
